Test results: PMC8904830, “Differential recognition of canonical NF-κB dimers by Importin α3” (Nature Communications, 2022)
No constants are given. Whether binding was seen depends on the method and setting. For some assays here: A result given as binding can be weak or reduced; the word gives no strength.

By UniProt entry, the sequences of proteins in these tests, tags left out. Where a name states a change or a piece, a line headed by the entry shows the natural chain unless it says otherwise. Residues count along the entry.
UniProt P19838, residues 41-351: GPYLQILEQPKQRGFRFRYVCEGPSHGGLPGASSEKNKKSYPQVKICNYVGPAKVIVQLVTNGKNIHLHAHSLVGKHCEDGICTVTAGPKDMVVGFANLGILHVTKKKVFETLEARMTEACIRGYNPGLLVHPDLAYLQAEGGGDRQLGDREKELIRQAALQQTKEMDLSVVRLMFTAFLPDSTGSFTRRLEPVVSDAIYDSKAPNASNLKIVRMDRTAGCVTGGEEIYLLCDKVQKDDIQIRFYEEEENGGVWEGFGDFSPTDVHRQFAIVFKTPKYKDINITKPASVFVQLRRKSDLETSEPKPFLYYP
UniProt Q04206, residues 1-290: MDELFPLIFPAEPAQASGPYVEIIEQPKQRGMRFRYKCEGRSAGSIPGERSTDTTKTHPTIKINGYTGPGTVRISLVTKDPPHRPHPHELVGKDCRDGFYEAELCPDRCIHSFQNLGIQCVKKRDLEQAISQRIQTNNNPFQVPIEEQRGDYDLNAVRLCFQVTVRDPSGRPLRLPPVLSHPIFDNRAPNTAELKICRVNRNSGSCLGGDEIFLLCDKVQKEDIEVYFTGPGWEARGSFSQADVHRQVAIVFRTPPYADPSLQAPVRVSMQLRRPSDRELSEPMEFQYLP
UniProt O00629: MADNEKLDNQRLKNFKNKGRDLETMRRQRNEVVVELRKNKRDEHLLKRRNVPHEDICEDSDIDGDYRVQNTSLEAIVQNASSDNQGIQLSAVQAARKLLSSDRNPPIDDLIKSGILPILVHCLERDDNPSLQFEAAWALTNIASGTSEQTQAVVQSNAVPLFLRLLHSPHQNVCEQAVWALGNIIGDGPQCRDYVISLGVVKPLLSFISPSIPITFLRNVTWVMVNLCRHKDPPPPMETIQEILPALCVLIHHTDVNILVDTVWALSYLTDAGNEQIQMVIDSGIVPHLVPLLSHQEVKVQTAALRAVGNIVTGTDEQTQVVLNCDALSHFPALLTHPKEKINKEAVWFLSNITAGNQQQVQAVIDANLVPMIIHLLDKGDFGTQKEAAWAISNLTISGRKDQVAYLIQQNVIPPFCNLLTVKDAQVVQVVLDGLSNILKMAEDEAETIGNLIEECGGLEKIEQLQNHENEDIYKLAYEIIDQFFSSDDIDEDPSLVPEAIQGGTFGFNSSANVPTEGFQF

Assays:
[1] = target: ΔNLS-p50/ΔNLS-p50 homodimer (human) (UniProt P19838); assay: ELISA; NF-κB hetero/homodimers (200 ng) coated on MaxiSorp plates; His-importin α 1000 to 0 nM in PBST, room temperature 1 h; anti-6xHis-HRP; one-site specific binding fit; both purified
[2] = target: ΔNLS-p65/ΔNLS-p65 homodimer (human) (UniProt Q04206); assay: as above
[3] = target: His-ΔIBB-importin α3 (human) (UniProt O00629); assay: crystal structure; His-ΔIBB-importin α3 with 2.5-fold molar excess of p50-NLS peptide; 0.2 M potassium thiocyanate, 20% PEG3350, 0.1 M BIS-TRIS pH 6.5; PDB 7LFC; both purified
[4] = target: His-ΔIBB-importin α3 (human) (UniProt O00629); assay: crystal structure; His-ΔIBB-importin α3 with p50- and p65-NLS peptides; 0.2 M ammonium sulfate, 0.1 M BIS-TRIS pH 6.5, 25% PEG 3350; PDB 7LF4; both purified

His-ΔIBB-importin α3 (from UniProt O00629) (domain or fragment)
binding [1]: no binding (tested: 1000 nM)
binding [2]: no binding (tested: 1000 nM)

B1: p50-NLS peptide (peptide)
peptide: DKEEVQRKRQKLMP
binding [3]: binds
binding [4]: binds

B2: p65-NLS peptide (peptide)
peptide: DRHRIEEKRKRTYETFKSIMKK
binding [4]: binds
